Earlier results on one molecule are cited in patent US20050004102A1, “Monohydroxycarbamazepine for use in the preparation of a medicament for the treatment of affective and attention disorder and neuropathic pain” (priority 2001, published 2005).

Each structure is given as a SMILES string.

In this series the test system is GABA turnover. The following applies: known from the literature; cited from earlier work.

For the molecule `CN1C(=O)CN=C(c2ccccc2)c2cc(Cl)ccc21` [diazepam], the GABA turnover rate result is “inhibit the GABA turnover rate”.
